Consider 2 molecules from US12503436B2, “Compounds and compositions for treating conditions associated with STING activity” (NOVARTIS PHARMA AG, priority 2021, dated 2025).

Protein sequences, listed by entry. Tags and fused reporters are not part of them.
UniProt Q86WV6, whole entry R71H/G230A/H232R/R293Q: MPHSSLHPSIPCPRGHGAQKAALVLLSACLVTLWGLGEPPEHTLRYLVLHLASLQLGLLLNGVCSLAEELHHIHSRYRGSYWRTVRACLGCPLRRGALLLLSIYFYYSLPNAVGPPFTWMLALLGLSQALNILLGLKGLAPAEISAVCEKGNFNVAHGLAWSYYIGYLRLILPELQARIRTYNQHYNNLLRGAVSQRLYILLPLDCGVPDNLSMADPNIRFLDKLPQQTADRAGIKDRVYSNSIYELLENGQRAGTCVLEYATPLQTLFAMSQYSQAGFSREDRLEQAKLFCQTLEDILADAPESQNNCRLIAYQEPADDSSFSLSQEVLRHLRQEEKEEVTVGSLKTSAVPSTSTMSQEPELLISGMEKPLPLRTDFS

The target of this experiment is STING (Homo sapiens, UniProt Q86WV6, G230A/H232R/R293Q/R71H). In words: STING reporter assay in THP1-Dual KO-IFNAR2 cells (2′3′cGAMP stimulation, luciferase reporter). To be noted: read-out: Pharmaron, THP1_IFNAR2 STING 24 h Luci Normalized: GeoMean EC50, 15 μM 2′3′cGAMP stimulation. The procedure: STING pathway activation by the compounds described herein was measured using THP1-Dual™ cells (KO-IFNAR2).
THP1-Dual™ KO-IFNAR2 Cells (obtained from InvivoGen) were maintained in RPMI, 10% FCS, 5 ml P/S, 2 mM L-glut, 10 mM Hepes, and 1 mM sodium pyruvate. Compounds were spotted in empty 384 well tissue culture plates (Greiner 781182) by Echo for a final concentration of 0.0017-100 μM. Cells were plated into the TC plates at 40 μL per well, 2×10E6 cells/mL. For activation with STING ligand, 2′3′cGAMP (MW 718.38, obtained from Invivogen), was prepared in Optimem media.
The following solutions were prepared for each 1×384 plate: • Solution A: 2 mL Optimem with one of the following stimuli: • 60 μL of 10 mM 2′3′cGAMP→150 μM stock • Solution B: 2 mL Optimem with 60 μL Lipofectamine 2000→Incubate 5 min at RT
2 mL of solution A and 2 ml Solution B was mixed and incubated for 20 min at room temperature (RT). […] Luciferase reporter activity was then measured. EC50 values were calculated by using standard methods known in the art.
Luciferase reporter assay: 10 μL of supernatant from the assay was transferred to white 384-plate with flat bottom and squared wells. […] Luminescence was measured on a Platereader (e.g., Spectramax I3X (Molecular Devices GF3637001)).
Luciferase reporter activity was then measured. EC50 values were calculated by using standard methods known in the art.

The structures given here were assigned with low confidence; some may be wrong.

One may read the EC50 as the midpoint of the concentration-response curve. As to `CC(=O)Nc1c[nH]c2ccc(CCCn3cc(C(F)(F)F)cn3)cc12`, the EC50 was in the range of 200 to 1000 nM.

For the molecule `CC(=O)Nc1c[nH]c2c(C)cc(OCCc3ccc(C(F)(F)F)cc3)nc12`, the EC50 lay in the range of 1000 to 5000 nM.
